Earlier results as cited in patent US20240189330A1, “Compositions and Methods for Inhibiting and Treating Viral Infections” (The Regents of the University of California, priority 2021, published 2024).
At least one structure is not confirmed: it was looked up by name or label, or the drawing left a doubt.

How the values were obtained:
SARS-COV-2 = conditions: plasma concentration of about 2 ng/ml (20 mg/day); exposure levels typical of regular and repeated close familial contact; cited from earlier work
[1] = system: coronaviruses, such as SARS-COV-2; conditions: disclosed in WO 2022015570; cited from earlier work

COC1=C(OC)C(=O)C(CCCCCCCCCC[P+](c2ccccc2)(c2ccccc2)c2ccccc2)=C(C)C1=O [Mito-MES, 10-(4,5-dimethoxy-2-methyl-3,6-dioxo-1,4-cyclohexadienyl) decyl triphenylphosphonium]
protection against infection by SARS-COV-2 (SARS-COV-2): protective against infection | antiviral and post-exposure prophylaxis activity against coronaviruses [1]: antiviral and post-exposure prophylaxis activity
